Reference: the supplement of paper PMC11659162
± gives the standard deviation of the averaged measurements. The list shows a part of the results. Single values of this set are uncertain.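 The cells are a human neuroglioma line carrying a green fluorescent autophagy reporter.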

system: H4 GFP-LC3; test: cell viability (scaled to control) (fraction of control); higher = more viable cells; details: 6 h

Compound | cell viability
N[C@H](CO)C(=O)O (5 µM) | 1.03
Fc1ccc([C@@H]2CCNC[C@H]2COc2ccc3c(c2)OCO3)cc1 (5 µM) | 0.85
CCC1(c2ccccc2)C(=O)NCNC1=O (5 µM) | 0.964
N[C@@H]1CCN(O)C1=O (5 µM) | 1.11
C[N+](C)(C)CC[N+]1(C)Cc2c(Cl)c(Cl)c(Cl)c(Cl)c2C1 (5 µM) | 1
O=C1CC2(CCCC2)CC(=O)N1CCCCNCC1COc2ccccc2O1 (centres undefined) (5 µM) | 0.775
CC(C)(C)[C@@]1(O)CCN2C[C@@H]3c4ccccc4CCc4cccc(c43)[C@H]2C1 (5 µM) | 0.892
CC(=O)NCC(=O)N[C@H](CCC(=O)O)C(=O)O (5 µM) | 0.987
CN/C(=N\CCSCc1nc[nH]c1C)NC#N (5 µM) | 0.981
CCN1CCC[C@H]1CNC(=O)c1c(OC)ccc(Br)c1OC (5 µM) | 0.887
O=C(Nc1ccccc1)C12CC1C(=NO)c1ccccc1O2 (centres undefined) (5 µM) | 0.941
N[C@@H](CSS(=O)(=O)O)C(=O)O (5 µM) | 0.949
CC(C)NC[C@@H](O)COc1cccc2ccccc12 (5 µM) | 0.708 ± 0.038
CNCCCC12CCC(c3ccccc31)c1ccccc12 (5 µM) | 0.696
Nc1ncnc2c1ncn2[C@@H]1O[C@H](COP(=O)(O)OP(=O)(O)O)[C@@H](O)[C@H]1O (5 µM) | 0.801
COc1ccc2[nH]cc(CCNC(C)=O)c2c1 (5 µM) | 0.979
CN(C)CCCN1c2ccccc2CCc2ccc(Cl)cc21 (5 µM) | 0.717
O=C(NCCNN1CCCCC1)c1ccc(I)cc1 (5 µM) | 0.904
NC/C=C/C(=O)O (5 µM) | 0.906

Compound | cell viability
CN(C)CCCSc1ccccc1NC(=O)/C=C/c1ccccc1 (5 µM) | 0.797
CC12CC3CC(C)(C1)CC(N)(C3)C2 (5 µM) | 1.17
Cn1c(=O)[nH]c2ncn(C)c2c1=O (5 µM) | 1.02
N[C@H](CC(=O)O)C(=O)O (5 µM) | 1.01
NC(=O)CC(NC(=O)Cc1ccc(O)cc1O)C(=O)O (centres undefined) (5 µM) | 1.16
COc1cc2c3cc1Oc1cc(ccc1O)C[C@@H]1c4c(cc(OC)c(O)c4Oc4ccc(cc4)C[C@@H]3N(C)CC2)CC[N+]1(C)C (5 µM) | 0.956
CCNC(=O)N1CCN(CCCC(c2ccc(F)cc2)c2ccc(F)cc2)CC1 (5 µM) | 0.779
NC1(C(=O)O)CCCC1 (5 µM) | 0.865
CC(C)NC[C@H](O)COc1cccc2ccccc12 (5 µM) | 0.718
CN1CCc2ccccc2Cc2[nH]c3ccccc3c2CC1 (5 µM) | 0.864
COc1cc(N)c(Cl)cc1C(=O)OCCCN1CCCCC1 (5 µM) | 0.775
CC(C)(C)NC[C@H](O)COc1nsnc1N1CCOCC1 (5 µM) | 0.893
CN1CCC(=C2c3ccccc3C=Cc3ccccc32)CC1 (5 µM) | 0.763
Oc1cc2c(cc1O)C(c1ccccc1)CNCC2 (centres undefined) (5 µM) | 0.91
Cn1cnc2c(ncn2[C@@H]2O[C@H](CO)[C@@H](O)[C@H]2O)c1=N (5 µM) | 0.966
CN[C@H](CC(=O)O)C(=O)O (5 µM) | 0.964
N=C(CC(O)COc1ccccc1-c1ccccc1)N1CCCCC1 (centres undefined) (5 µM) | 0.63
Oc1ccc(C2CNCCc3c2cc(O)c(O)c3Cl)cc1 (centres undefined) (5 µM) | 0.918

same assay, conditions: 24 h

Compound | cell viability
N[C@H](CO)C(=O)O (5 µM) | 1.06
Fc1ccc([C@@H]2CCNC[C@H]2COc2ccc3c(c2)OCO3)cc1 (5 µM) | 1.09
CCC1(c2ccccc2)C(=O)NCNC1=O (5 µM) | 1.17
N[C@@H]1CCN(O)C1=O (5 µM) | 1.24
C[N+](C)(C)CC[N+]1(C)Cc2c(Cl)c(Cl)c(Cl)c(Cl)c2C1 (5 µM) | 0.969
O=C1CC2(CCCC2)CC(=O)N1CCCCNCC1COc2ccccc2O1 (centres undefined) (5 µM) | 0.635
CC(C)(C)[C@@]1(O)CCN2C[C@@H]3c4ccccc4CCc4cccc(c43)[C@H]2C1 (5 µM) | 1.16
CC(=O)NCC(=O)N[C@H](CCC(=O)O)C(=O)O (5 µM) | 0.99
CN/C(=N\CCSCc1nc[nH]c1C)NC#N (5 µM) | 1.07
CCN1CCC[C@H]1CNC(=O)c1c(OC)ccc(Br)c1OC (5 µM) | 1.29
O=C(Nc1ccccc1)C12CC1C(=NO)c1ccccc1O2 (centres undefined) (5 µM) | 1.32
N[C@@H](CSS(=O)(=O)O)C(=O)O (5 µM) | 1.42
CC(C)NC[C@@H](O)COc1cccc2ccccc12 (5 µM) | 0.933 ± 0.021
CNCCCC12CCC(c3ccccc31)c1ccccc12 (5 µM) | 0.879
Nc1ncnc2c1ncn2[C@@H]1O[C@H](COP(=O)(O)OP(=O)(O)O)[C@@H](O)[C@H]1O (5 µM) | 1.15
COc1ccc2[nH]cc(CCNC(C)=O)c2c1 (5 µM) | 0.884
CN(C)CCCN1c2ccccc2CCc2ccc(Cl)cc21 (5 µM) | 0.806
O=C(NCCNN1CCCCC1)c1ccc(I)cc1 (5 µM) | 1.12
NC/C=C/C(=O)O (5 µM) | 1.05

Compound | cell viability
CN(C)CCCSc1ccccc1NC(=O)/C=C/c1ccccc1 (5 µM) | 1.11
CC12CC3CC(C)(C1)CC(N)(C3)C2 (5 µM) | 1.12
Cn1c(=O)[nH]c2ncn(C)c2c1=O (5 µM) | 1.06
N[C@H](CC(=O)O)C(=O)O (5 µM) | 1.27
NC(=O)CC(NC(=O)Cc1ccc(O)cc1O)C(=O)O (centres undefined) (5 µM) | 1.15
COc1cc2c3cc1Oc1cc(ccc1O)C[C@@H]1c4c(cc(OC)c(O)c4Oc4ccc(cc4)C[C@@H]3N(C)CC2)CC[N+]1(C)C (5 µM) | 1.19
CCNC(=O)N1CCN(CCCC(c2ccc(F)cc2)c2ccc(F)cc2)CC1 (5 µM) | 1.07
NC1(C(=O)O)CCCC1 (5 µM) | 1.02
CC(C)NC[C@H](O)COc1cccc2ccccc12 (5 µM) | 0.905
CN1CCc2ccccc2Cc2[nH]c3ccccc3c2CC1 (5 µM) | 1.24
COc1cc(N)c(Cl)cc1C(=O)OCCCN1CCCCC1 (5 µM) | 0.98
CC(C)(C)NC[C@H](O)COc1nsnc1N1CCOCC1 (5 µM) | 1.05
CN1CCC(=C2c3ccccc3C=Cc3ccccc32)CC1 (5 µM) | 0.971
Oc1cc2c(cc1O)C(c1ccccc1)CNCC2 (centres undefined) (5 µM) | 1.11
Cn1cnc2c(ncn2[C@@H]2O[C@H](CO)[C@@H](O)[C@H]2O)c1=N (5 µM) | 0.858
CN[C@H](CC(=O)O)C(=O)O (5 µM) | 1.04
N=C(CC(O)COc1ccccc1-c1ccccc1)N1CCCCC1 (centres undefined) (5 µM) | 0.839
Oc1ccc(C2CNCCc3c2cc(O)c(O)c3Cl)cc1 (centres undefined) (5 µM) | 0.993
